This passage reports binding signal results from article PMC7819943, “Rice protein-binding microarrays: a tool to detect cis-acting elements near promoter regions in rice”.

The list shows a part of the results.

The experiment concerns the target T1, OsSMF1 (Oryza sativa, UniProt Q6ZLB0 1-436).
T1 sequence: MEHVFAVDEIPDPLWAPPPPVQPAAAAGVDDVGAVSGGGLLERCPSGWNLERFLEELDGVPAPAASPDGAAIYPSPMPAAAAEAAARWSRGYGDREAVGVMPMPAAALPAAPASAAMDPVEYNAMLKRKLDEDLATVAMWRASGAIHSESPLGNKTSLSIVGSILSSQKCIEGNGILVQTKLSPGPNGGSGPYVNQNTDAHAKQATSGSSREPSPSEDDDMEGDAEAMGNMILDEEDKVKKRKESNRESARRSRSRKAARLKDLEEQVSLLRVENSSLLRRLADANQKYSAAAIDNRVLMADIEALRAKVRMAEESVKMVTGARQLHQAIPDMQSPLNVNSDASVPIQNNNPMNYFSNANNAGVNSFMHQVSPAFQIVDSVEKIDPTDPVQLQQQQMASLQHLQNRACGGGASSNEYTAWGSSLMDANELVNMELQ
Briefly: protein-binding microarray (RPBM); PBS, 2% BSA, 51.3 ng/ul salmon testes DNA, 50 uM zinc acetate, 200 nM TF, 25 C, 1 h; high values mean tight binding. The conditions noted are these: protein: recombinant; tags: N-terminal polyhistidine and DsRed monomer fusion (pET32a); chain copies: 2; label: CyDye5-dUTP incorporated in the synthesized complementary strand; 3' TTTTT single-stranded linker to array surface; dsDNA, one strand shown. Put shortly:
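The binding signal is fluorescence intensity per array feature (arbitrary units). Readings came from an Axon 4000B scanner after a washed, 2% BSA-blocked, double-stranded custom Agilent array had been incubated for 1 h at 25 °C with 200 nM protein and 50 µM zinc acetate. The protein was a Ni–NTA-purified transcription factor fused N-terminally to polyhistidine and DsRed, expressed in E. coli BL21-CodonPlus.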
For the sequence “GTCGTTGTTGTCAATAGAGCACGTCATGTTCAGGTTAGGCCGGAGTCACCTAGTGCAG”, the binding signal was 8250 fluorescence intensity (a.u.).
On to “ACGCGGCCGACCCGCGCGCCTCGATGCGCGAGCCCATCCGCGGAGTCACCTAGTGCAG”, for which the binding signal was 3170 fluorescence intensity (a.u.).
“GTTAAATATTGACAAAATTTAGCATCAAAACCGTAGAGACCGGAGTCACCTAGTGCAG”: the binding signal was 18100 fluorescence intensity (a.u.).
Consider “TCTCACGATAGGCTGATCTGACCGTCCACGTGTCCCATGCCGGAGTCACCTAGTGCAG”, for which the binding signal was 17000 fluorescence intensity (a.u.).
Regarding “GATCCTTATTTGAAGTGAGCTATTTTCTTTATTTTAACATCGGAGTCACCTAGTGCAG”, the binding signal was 30800 fluorescence intensity (a.u.).
Turning to “TCCCGATCGACGCGTGCATGGCGGCGAGCCTTCTGTCCCACGGAGTCACCTAGTGCAG”, the binding signal is 3330 fluorescence intensity (a.u.).
As for “TGGTCAGGTGGAGGCATCGGTCGCCACGACGTGCGATTTCCGGAGTCACCTAGTGCAG”, the binding signal is 3770 fluorescence intensity (a.u.).
To “AAAAGACTTATTCCCAACTCAGATTGACTCAGCCCATCTCCGGAGTCACCTAGTGCAG” belongs 8390 fluorescence intensity (a.u.).
Take “CTGCCATCTTCTCCTTTAAATACGTCATCGCTTAATTTCCCGGAGTCACCTAGTGCAG”: the binding signal is 11800 fluorescence intensity (a.u.).
On to “GTCCTTCCTGGCCGTTGTCGACCGCGTGGCCGTCGCCGAGCGGAGTCACCTAGTGCAG”, for which the binding signal is 3740 fluorescence intensity (a.u.).
Take “ACGGCAGGAACATCCGGAGGCGGTGGAGGCAGGCGTGGCGCGGAGTCACCTAGTGCAG”: the binding signal is 3900 fluorescence intensity (a.u.).
Consider “ACTTGCTACTTCCTCGTTGCATCCGTGGCATTTGGGCTAGCGGAGTCACCTAGTGCAG”, for which the binding signal is 3830 fluorescence intensity (a.u.).
“GATATATATACGCGTTCATCAGCGTACGTTCTTATAGCTACGGAGTCACCTAGTGCAG”: the binding signal is 40100 fluorescence intensity (a.u.).
For “AATATCATCCACCAAAATCAACTGCCGCCGAAACCTCCCACGGAGTCACCTAGTGCAG”, the binding signal is 3260 fluorescence intensity (a.u.).
As for “TAGGATACCACTAGGGTGCCACGTATGCTGATCATCCTCTCGGAGTCACCTAGTGCAG”, the binding signal was 6210 fluorescence intensity (a.u.).
As for “TCAACGGCGTCAAACATTTTGAAACGGAGGGAGTATTAGACGGAGTCACCTAGTGCAG”, the binding signal was 11500 fluorescence intensity (a.u.).
As to “AGGCATTTCTGCATCACCACGTCAATTATAAAGCTTGTAGCGGAGTCACCTAGTGCAG”, the binding signal was 6300 fluorescence intensity (a.u.).
“CGAAAGCAGAACACACTACTACAGTGACGCAACTTCCCTCCGGAGTCACCTAGTGCAG”: the binding signal is 4800 fluorescence intensity (a.u.).
As to “ACGATACCTCCTAGACATGATCTTCCACCTCAAACTATGACGGAGTCACCTAGTGCAG”, the binding signal was 20700 fluorescence intensity (a.u.).
The figure for “TAGTAGTAAAACATTTACACAGATCTGAATCATCATCATCCGGAGTCACCTAGTGCAG” is 3920 fluorescence intensity (a.u.).
For the sequence “CTCCGCGTCGCGCACACGCCACGCAAGAGGACCAGGTCGGCGGAGTCACCTAGTGCAG”, the binding signal is 7100 fluorescence intensity (a.u.).
For the sequence “AACCACCTTCCTGCGTTGATGACCACTGCTGATCCTGGTGCGGAGTCACCTAGTGCAG”, the binding signal was 3380 fluorescence intensity (a.u.).
For “GACGGCAGGCTTGATGGTGACCGTGGCGAGGGCAGGAGCTCGGAGTCACCTAGTGCAG”, the binding signal is 3810 fluorescence intensity (a.u.).
With “GGCTGACAGATCTGCTGATGTAGTCGGCTTCACCTCCAGCCGGAGTCACCTAGTGCAG”, the binding signal was 4160 fluorescence intensity (a.u.).
Turning to “TGTATTTGCTCTCATTGAATCTAGTCACATTCTGAATCTCCGGAGTCACCTAGTGCAG”, the binding signal was 4820 fluorescence intensity (a.u.).
With “ACCGAAACGCTCCGCCCGTAATTTCTGCCGCCGACGCGGCCGGAGTCACCTAGTGCAG”, the binding signal was 3950 fluorescence intensity (a.u.).
As to “CCCGTCAACGCCACCTCACCGTTGACGTTGCCACTCTCTTCGGAGTCACCTAGTGCAG”, the binding signal was 12300 fluorescence intensity (a.u.).
Consider “AACGTGGGAGGAAATGTTCTGCTAGGAATAACTTGAATAACGGAGTCACCTAGTGCAG”, for which the binding signal was 26600 fluorescence intensity (a.u.).
To “CAGTAGTGTTGGAGGAAGTGCCAGGTGGTGAGGCAGCAGCCGGAGTCACCTAGTGCAG” belongs 30600 fluorescence intensity (a.u.).
With “AATATGTTTGTTTTACACTTTTGTTGGGTGAGTCATAGATCGGAGTCACCTAGTGCAG”, the binding signal is 9710 fluorescence intensity (a.u.).
As to “GTTCGCGCGCAGGCCGGTGACGCTCCCGTCACCGGCGGCCCGGAGTCACCTAGTGCAG”, the binding signal was 3180 fluorescence intensity (a.u.).
As to “AAGCTACCCAAAAGACCCTGTGCAACAGTGCAGGGTTGGACGGAGTCACCTAGTGCAG”, the binding signal is 5910 fluorescence intensity (a.u.).
For “GATCAACCTTATTTCTGCAAGCAAATCAAAGAAACAAGCACGGAGTCACCTAGTGCAG”, the binding signal was 41700 fluorescence intensity (a.u.).
In the case of “GGGCAAATGTGTATCATCACTTATACTTGGCACTAACTTGCGGAGTCACCTAGTGCAG”, the binding signal was 3230 fluorescence intensity (a.u.).
For the sequence “TTTGGGGTGAAAGTGCATGTGCGCATGGAAGTCGATTACGCGGAGTCACCTAGTGCAG”, the binding signal was 3300 fluorescence intensity (a.u.).
To “CTATTTCAGTTGTGTTTGTGCGTGTCTGTACTTTATGTTTCGGAGTCACCTAGTGCAG” belongs 3400 fluorescence intensity (a.u.); to “GTTATTCACCGTCTGATGTGGATGAACGACTGCACGGTACCGGAGTCACCTAGTGCAG”, 6720 fluorescence intensity (a.u.); to “GAACACCTACGTCATCCTTCAAGCGACGCAGTCCGACCGCCGGAGTCACCTAGTGCAG”, 9950 fluorescence intensity (a.u.).
Take “ATAGGCAAGTTTGCTATGATTGCTGGCGTGTCCTATAGGACGGAGTCACCTAGTGCAG”: the binding signal was 5120 fluorescence intensity (a.u.).
For the sequence “AGGTCAGGGAGCTGGCGGTGGTGGGCGGGACGGGCAAGCTCGGAGTCACCTAGTGCAG”, the binding signal is 4400 fluorescence intensity (a.u.).
“ACGCGCGCCGCGCCGCGCCGTGCCACGCCCGTTCGTCCATCGGAGTCACCTAGTGCAG”: the binding signal was 5820 fluorescence intensity (a.u.).
Turning to “GTTTTGATTGCAAACTGTACTAAGACCATCCGTTGTAATTCGGAGTCACCTAGTGCAG”, the binding signal is 9110 fluorescence intensity (a.u.).
